Source: publication PMC5762515
Results are given in words; binding and its absence hold for the method and conditions named. In cells and extracts the contact can be indirect. Some results given as binding are weak or reduced against the parent protein; the word gives no strength.

The chains behind the UniProt entries cited, without tags or fusion partners.
UniProt Q14457: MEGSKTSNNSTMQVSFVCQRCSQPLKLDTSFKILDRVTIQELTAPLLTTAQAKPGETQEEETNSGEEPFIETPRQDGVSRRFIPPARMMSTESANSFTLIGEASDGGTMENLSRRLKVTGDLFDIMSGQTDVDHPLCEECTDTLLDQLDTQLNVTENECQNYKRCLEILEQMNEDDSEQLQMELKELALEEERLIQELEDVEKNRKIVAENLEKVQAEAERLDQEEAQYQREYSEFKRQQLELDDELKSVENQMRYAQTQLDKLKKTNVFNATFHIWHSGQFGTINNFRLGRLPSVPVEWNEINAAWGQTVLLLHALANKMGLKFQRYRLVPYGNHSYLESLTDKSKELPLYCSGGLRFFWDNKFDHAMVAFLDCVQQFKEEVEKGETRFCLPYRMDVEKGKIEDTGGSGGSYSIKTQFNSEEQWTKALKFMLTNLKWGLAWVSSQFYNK
UniProt P10415: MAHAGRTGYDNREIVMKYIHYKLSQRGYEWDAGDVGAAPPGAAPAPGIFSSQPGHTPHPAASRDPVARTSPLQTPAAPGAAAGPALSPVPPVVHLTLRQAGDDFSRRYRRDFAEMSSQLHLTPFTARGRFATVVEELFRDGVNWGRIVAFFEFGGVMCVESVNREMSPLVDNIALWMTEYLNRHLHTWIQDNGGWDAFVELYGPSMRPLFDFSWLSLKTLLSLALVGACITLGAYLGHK

Target: Beclin1 (human (endogenous in MV3 and A375)) (UniProt Q14457)
Experiment: co-IP; precleared cell lysates incubated with anti-Beclin1 antibodies or normal IgG overnight at 4°C, protein A+G agarose 6 h at 4°C, western blotting; cells treated with 100 μM leflunomide or DMSO for 72 h, or with DHODH knockdown (MV3)

Row | binding | Substance
1 | binds | BCL-2 (from UniProt P10415 1-239)
2 | binds | BCL-2 (overexpressed in A375 cells) (from UniProt P10415 1-239)
